Source: the supplement of paper PMC5407854, “Inhibitor of ppGalNAc-T3-mediated O-glycosylation blocks cancer cell invasiveness and lowers FGF23 levels” (eLife, 2017)
The list shows a part of the results. Small differences around the control level are noise.

system: ppGalNAc-T2 sensor; experiment: T2 sensor activation Q score (MG/GFP ratio z-score vs DMSO controls) (SD units); higher = more sensor activation (inhibition of ppGalNAc-T2 glycosylation); conditions: HEK293 sensor cells; 10 µM; 6 h
Method: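 Cells were treated with compound at 10 uM for 6 h, then MG/GFP ratio was read by flow cytometry (10,000 cells per well, duplicate wells). Q = (R - R_neg)/SD_neg relative to DMSO vehicle controls; the signal rises when the glycosyltransferase is inhibited.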

SMILES	T2 sensor activation Q score
CCCCOc1ccc(CN2CCN(CC)CC2)cc1	-0.315
CCN1CCN(Cc2cccc([N+](=O)[O-])c2)CC1	0.92
COc1ccc(CN2CCN(c3cccc(C)c3C)CC2)cc1	0.185
Cc1ccccc1CN1C[C@@H]2C[C@@H](C1)c1cccc(=O)n1C2	0.19
CN1CCN(Cc2ccccc2)CC1	0.825
COc1ccc(CN2CCN(c3ccccc3)CC2)cc1O	0
Cc1[nH]c2ccc(C(=O)O)cc2c1CCN	0.02
COc1ccc(CCNC2C3CC4CC(C3)CC2C4)cc1OC (stereo not given)	0.325
c1ccc(CN2CCN(c3ccccc3)CC2)cc1	0.635
O=[N+]([O-])c1cc(Cl)ccc1N1CCNCC1	-0.48
Cc1ccccc1N1CCN(Cc2ccc(O)cc2)CC1	1.36
COc1cccc(N2CCN(Cc3ccc(Br)cc3)CC2)c1	-0.05
Fc1ccc(CN2CCN(c3cccc(Cl)c3)CC2)cc1	-0.855
CCN1CCN(Cc2cc(F)ccc2F)CC1	0.48
COc1ccc(CN2CCN(c3cccc(C)c3C)CC2)cc1C	0.04
CCOc1ccccc1N1CCN(Cc2ccccc2F)CC1	0.02
COc1ccc(CN2CCN(c3ccccc3OC)CC2)cc1C	0.15
Cc1ccccc1N1CCN(Cc2ccc3c(c2)OCO3)CC1	0.235
COc1ccc(CN2CCN(c3ccccc3Cl)CC2)cc1	-0.805
CN(C)c1ccc(CN2CCN(c3ccccc3Cl)CC2)cc1	0.335

SMILES	T2 sensor activation Q score
COc1ccc(CN2CCN(c3ccccc3)CC2)cc1C	-1.08
COc1ccc(CN2CCN(c3ccc(Cl)cc3)CC2)cc1OC	-0.22
Fc1ccccc1N1CCN(Cc2cccc(Cl)c2)CC1	-0.16
CCC1CN(C)CCC1(O)c1ccccc1 (stereo not given)	-0.905
COc1cccc(CN2CCN(c3ccccc3OC)CC2)c1	-0.085
COc1ccccc1CN1CCN(c2ccccc2Cl)CC1	0.69
COc1ccc(CC(=O)N2CCN(C)CC2)cc1	-0.55
CCOc1ccccc1N1CCN(Cc2ccccc2)CC1	-0.29
COc1cc(Br)c(CN2CCN(c3ccccc3)CC2)cc1OC	-0.39
Cc1ccc(CN2CCN(C)CC2)cc1	-0.505
CCN1CCN(Cc2ccc(OC)c(OC)c2OC)CC1	0.325
CCc1ccc(CN2CCN(c3ccccc3OC)CC2)cc1	0.81
CCOc1ccc(/C=C/[N+](=O)[O-])cc1	-0.095
CCOc1ccc(CN2CCN(c3ccc(F)cc3)CC2)cc1	0.24
Fc1ccccc1N1CCN(Cc2ccccc2Cl)CC1	-0.4
CC(C)N1CCN(Cc2ccccc2Cl)CC1	-0.105
Cc1cccc(N2CCN(Cc3ccccc3)CC2)c1C	0.06
COc1ccc(N2CCN(Cc3cccc(F)c3)CC2)cc1	0.36
COc1ccccc1N1CCN(Cc2ccc(Cl)cc2)CC1	0.8
C/C(=C\c1ccc(Cl)cc1)[N+](=O)[O-]	-0.215

Gathered by group, those above containing nitrogen in an aromatic ring (two)
SMILES	T2 sensor activation Q score
Cc1ccccc1CN1C[C@@H]2C[C@@H](C1)c1cccc(=O)n1C2	0.19
Cc1[nH]c2ccc(C(=O)O)cc2c1CCN	0.02
